No constants are given. Whether binding was seen depends on the method and setting. In cells and extracts the contact can be indirect. Some binding calls cover weakened binding; strength is not graded here.
Biological target: Bromodomain-containing protein 2 (human) (UniProt P25440)
Test: co-IP; IP analysis of BRD2 and FOXO4 (Fig. 6C); cells and conditions not told

The chains behind the UniProt entries cited, without tags or fusion partners.
UniProt P25440: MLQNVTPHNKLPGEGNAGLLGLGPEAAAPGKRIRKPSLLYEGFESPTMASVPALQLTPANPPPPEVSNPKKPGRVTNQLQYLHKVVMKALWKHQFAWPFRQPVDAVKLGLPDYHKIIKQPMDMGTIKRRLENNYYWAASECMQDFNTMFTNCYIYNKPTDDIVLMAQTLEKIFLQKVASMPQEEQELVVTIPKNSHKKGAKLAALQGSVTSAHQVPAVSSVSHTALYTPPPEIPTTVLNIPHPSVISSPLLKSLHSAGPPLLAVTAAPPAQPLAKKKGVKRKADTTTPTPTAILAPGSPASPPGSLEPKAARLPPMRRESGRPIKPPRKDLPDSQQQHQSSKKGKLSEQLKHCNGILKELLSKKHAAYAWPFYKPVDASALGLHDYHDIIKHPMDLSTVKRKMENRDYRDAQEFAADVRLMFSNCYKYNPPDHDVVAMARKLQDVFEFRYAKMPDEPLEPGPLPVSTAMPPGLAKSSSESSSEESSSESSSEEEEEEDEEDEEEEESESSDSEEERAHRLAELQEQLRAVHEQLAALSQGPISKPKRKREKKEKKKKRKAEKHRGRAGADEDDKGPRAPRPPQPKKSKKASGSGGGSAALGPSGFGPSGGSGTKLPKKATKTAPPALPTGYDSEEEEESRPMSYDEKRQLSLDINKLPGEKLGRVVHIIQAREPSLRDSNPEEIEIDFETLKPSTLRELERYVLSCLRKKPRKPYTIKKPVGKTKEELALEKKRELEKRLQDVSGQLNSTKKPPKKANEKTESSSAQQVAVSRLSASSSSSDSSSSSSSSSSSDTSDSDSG
UniProt P98177: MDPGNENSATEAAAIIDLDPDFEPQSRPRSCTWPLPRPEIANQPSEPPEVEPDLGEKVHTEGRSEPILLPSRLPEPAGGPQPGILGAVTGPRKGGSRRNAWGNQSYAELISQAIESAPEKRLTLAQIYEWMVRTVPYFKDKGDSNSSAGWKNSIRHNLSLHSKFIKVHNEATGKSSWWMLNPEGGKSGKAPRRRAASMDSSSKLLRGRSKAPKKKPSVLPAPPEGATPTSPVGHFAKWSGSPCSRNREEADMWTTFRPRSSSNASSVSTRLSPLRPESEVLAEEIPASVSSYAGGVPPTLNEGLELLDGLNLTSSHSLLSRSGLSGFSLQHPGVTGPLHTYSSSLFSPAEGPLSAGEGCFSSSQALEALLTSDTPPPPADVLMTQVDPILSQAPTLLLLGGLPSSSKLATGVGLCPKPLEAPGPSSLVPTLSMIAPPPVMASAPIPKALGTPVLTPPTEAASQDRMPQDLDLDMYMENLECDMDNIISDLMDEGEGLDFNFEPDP

binding: binds
Substance: FOXO4 wild-type (from UniProt P98177 1-505)
